Results of single-concentration screens

Chains of the proteins cited; added tags and fusions are not shown.
UniProt I6X8D2, whole entry: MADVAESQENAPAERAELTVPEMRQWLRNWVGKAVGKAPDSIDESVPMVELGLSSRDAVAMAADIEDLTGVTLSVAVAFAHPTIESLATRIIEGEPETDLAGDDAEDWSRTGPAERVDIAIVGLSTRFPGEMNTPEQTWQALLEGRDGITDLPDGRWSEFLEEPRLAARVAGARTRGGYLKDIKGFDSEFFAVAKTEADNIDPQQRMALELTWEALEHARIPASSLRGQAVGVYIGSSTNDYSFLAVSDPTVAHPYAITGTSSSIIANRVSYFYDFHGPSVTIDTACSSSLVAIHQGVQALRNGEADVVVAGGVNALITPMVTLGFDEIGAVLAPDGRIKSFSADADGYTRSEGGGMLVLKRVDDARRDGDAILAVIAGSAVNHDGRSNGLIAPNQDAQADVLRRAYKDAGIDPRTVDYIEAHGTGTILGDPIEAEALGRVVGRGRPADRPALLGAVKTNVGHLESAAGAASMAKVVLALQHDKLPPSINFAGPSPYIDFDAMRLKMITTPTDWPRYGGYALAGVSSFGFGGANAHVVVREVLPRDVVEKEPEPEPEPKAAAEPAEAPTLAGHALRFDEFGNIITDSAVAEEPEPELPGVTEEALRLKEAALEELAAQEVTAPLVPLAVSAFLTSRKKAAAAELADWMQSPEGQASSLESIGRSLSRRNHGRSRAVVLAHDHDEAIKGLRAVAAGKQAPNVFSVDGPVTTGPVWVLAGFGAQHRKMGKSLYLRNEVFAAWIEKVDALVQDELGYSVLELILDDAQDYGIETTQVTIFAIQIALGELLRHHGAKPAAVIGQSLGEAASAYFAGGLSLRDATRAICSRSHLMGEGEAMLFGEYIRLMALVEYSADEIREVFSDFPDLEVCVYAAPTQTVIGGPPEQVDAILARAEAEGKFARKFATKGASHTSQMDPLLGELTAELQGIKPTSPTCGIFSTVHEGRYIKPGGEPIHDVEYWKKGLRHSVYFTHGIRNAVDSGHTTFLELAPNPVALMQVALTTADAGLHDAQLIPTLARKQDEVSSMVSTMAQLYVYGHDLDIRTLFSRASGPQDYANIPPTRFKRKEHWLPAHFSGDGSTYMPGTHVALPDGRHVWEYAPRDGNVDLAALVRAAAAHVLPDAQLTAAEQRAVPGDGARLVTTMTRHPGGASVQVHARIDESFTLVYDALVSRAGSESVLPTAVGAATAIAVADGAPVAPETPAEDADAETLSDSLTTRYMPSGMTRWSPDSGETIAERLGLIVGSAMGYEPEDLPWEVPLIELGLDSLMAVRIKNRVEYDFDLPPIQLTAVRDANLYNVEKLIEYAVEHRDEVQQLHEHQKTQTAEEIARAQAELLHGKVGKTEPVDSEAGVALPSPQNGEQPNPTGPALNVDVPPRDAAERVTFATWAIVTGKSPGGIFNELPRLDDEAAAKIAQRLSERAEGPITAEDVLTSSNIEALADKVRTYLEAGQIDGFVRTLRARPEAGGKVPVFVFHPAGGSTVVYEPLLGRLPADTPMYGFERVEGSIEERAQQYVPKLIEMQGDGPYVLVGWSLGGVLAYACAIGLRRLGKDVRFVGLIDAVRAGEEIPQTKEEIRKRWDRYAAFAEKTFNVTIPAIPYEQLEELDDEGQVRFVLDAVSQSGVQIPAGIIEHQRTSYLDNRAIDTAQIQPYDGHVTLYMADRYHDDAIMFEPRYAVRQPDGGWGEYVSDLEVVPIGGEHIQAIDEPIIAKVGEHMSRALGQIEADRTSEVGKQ

Each number is a percent effect as filed.
The record does not define 0% and 100%; most values in the screen are far below 50% and negative numbers occur (in some assays of this library far below -100).
The compounds are a random part of those screened.

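Polyketide synthase Pks13, Mycobacterium tuberculosis (UniProt I6X8D2). Enzyme assay of the thioesterase domain of polyketide synthase 13; the read-out is not stated. Compounds at 30 µM. The record gives no direction; the compounds picked for IC50 retests had high values, so higher reads as stronger inhibition. About 67,000 compounds were tested under these conditions; 0.46% (about 300) showed 50% or more at least once.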

| Compound | percent effect |
|---|---|
| `Cc1nccn1C1CCCN(C(=O)c2cc(O)nc3ccccc23)C1` (centres undefined) | -17.76% |
| `O=C(Cn1nc(-c2ccc(F)cc2)oc1=O)Nc1ccccc1` | -10.89% |
| `CC(C)Cc1noc(CN2CCN(C(=O)c3ccco3)CC2)n1` | -17.2% |
| `CC(C)n1cc(CN2CCCN(C(=O)C3(C)CCOCC3)CC2)cn1` | 0.5895% |
| `CC(=O)N1CC(C(=O)NCCc2ncc(C)s2)C1` | 7.296% |
| `Cc1ccc(CN(C)C(=O)CN2CC(n3cccn3)C2)o1` | -35.6% |
| `CCCc1nnc(NC(=O)N2CCCC2c2ccncc2)s1` (centres undefined) | 16.85% |
| `CC(C)NC(=O)C1CN(Cc2cccs2)Cc2ccnn2C1` (centres undefined) | -42.46% |
| `Cc1cccc(C(=O)N2CCSCC2)c1NC(=O)c1cccnc1` | -4.576% |
| `Cc1ccc(-n2cnnn2)cc1NCC(=O)Nc1cc(F)ccc1F` | 3.889% |
| `c1ccc([C@@H]2CN(Cc3cccnc3)C[C@H]2c2cc[nH]n2)cc1` | -10.5% |
| `c1cncc(COC[C@H]2CC[C@H]3[C@H](CCN3Cc3cccs3)O2)c1` | -37.86% |
| `CC(C)n1nc2c(cc1=O)CN(c1ncnc3ccsc13)CC2` | -1.488% |
| `Cc1nc(N(C)C)nc2c1COCC21CCN(CC2CC2)C1` (centres undefined) | -0.7081% |
| `Cc1ccc(Oc2ncccc2C(=O)N(C)CCCN(C)C)cc1` | 7.486% |
| `Cc1cccc(NCc2nn(C)c(=O)[nH]2)c1` | 8.424% |
| `COc1cccc(OC2CN(C(=O)CCn3cnnn3)C2)c1` | -13.32% |
| `CN(CCc1nc2cc(Cl)ccc2[nH]1)C(=O)c1ncn[nH]1` | -142.8% |
| `CCC(Nc1cccc(OC)c1)C(=O)NCc1ccc2[nH]c(=O)[nH]c2c1` (centres undefined) | 1.938% |
| `O=C(NCc1cccs1)[C@H]1CC[C@@H]2[C@@H](CCN2c2ncccn2)O1` | -21.61% |
| `CC(C)CN(C)c1ccc(C(=O)N2CCCC2c2cnn(C)c2)cn1` (centres undefined) | -13.92% |
| `N#Cc1cnc(NCc2cccc(C(=O)N3CCCC3)c2)c(Cl)c1` | -18.63% |
| `Fc1cccc2[nH]c(CN3CCn4c(nnc4C4CC4)C3)nc12` | -7.74% |
| `O=C(O)c1ccc(S(=O)(=O)Nc2c(F)cccc2-n2cccn2)cc1` | 25.32% |
| `CC(C)CN1CCCC1c1ccc(C(=O)Nc2cc[nH]n2)s1` (centres undefined) | -32.26% |
| `COc1ccc(CC(=O)N2CC[C@H](CO)[C@H](O)C2)c(OC)c1` | -3.143% |
| `COc1ncccc1CNC(=O)c1cccc(C)n1` | -26.04% |
| `CC(C)c1cc2c(s1)NC(c1ccccc1)NC2=O` (centres undefined) | -6.681% |
| `CCn1ccnc1CN(C)CC1CCCN1c1cccnn1` (centres undefined) | -8.922% |
| `CN1CC(C(=O)NC(C)(C)C)CC1=O` (centres undefined) | -7.681% |
| `Cc1nnc(C(NS(=O)(=O)c2cc(F)c(C)cc2F)C(C)C)[nH]1` (centres undefined) | -3.908% |
| `CCC(C)(COc1ncccc1Cl)NCC(=O)NCC(C)C` (centres undefined) | -4.309% |
| `CS(=O)(=O)C1CCN(S(=O)(=O)c2ccc(F)c(F)c2)C1` (centres undefined) | 1.562% |
| `CN(Cc1nc(Cc2cccc(C(F)(F)F)c2)no1)CC1CCCCO1` (centres undefined) | 11.02% |
| `Cc1ccccc1C(=O)N1C[C@@H]2OCCN(c3ncccn3)[C@@H]2C1` | -43.86% |
| `COCCCNc1c(C#N)c2c(c3nncn13)CN(C)CC2` | -5.719% |
| `COCCN(Cc1sccc1C)Cc1nccn1CCOC` | -35.99% |
| `CC(C)N1CC(C(=O)N2CCc3c(nc(CC4CC4)[nH]c3=O)C2)CC1=O` (centres undefined) | -6.536% |
| `FC(F)(F)C1CN(Cc2cccc(OCc3ccccn3)c2)CCO1` (centres undefined) | -0.08203% |
| `O=C(C1CC1)N1CCN(c2ccc(-n3cncn3)nn2)CC1` | -24.19% |
| `CN(C)c1ncc2c(O)nc(C3CCNCC3)cc2n1` | -2.313% |
| `CC(C)c1noc(CCCC(=O)N2CCN(C)CC2c2ccccc2)n1` (centres undefined) | -8.045% |
| `Cc1nn(C)c(N(C)C)c1CNCCOc1ccc2c(c1)OCO2` | 2.354% |
| `O=C(c1ccco1)N1CCCC2(CN(Cc3ccc(F)cc3)CCO2)C1` (centres undefined) | -30.1% |
| `Cc1nccnc1C1CCN(C2CCCC2O)CC1` (centres undefined) | 10.95% |
| `O=c1ccc(-c2cccs2)nn1CN1CCN(C2CCS(=O)(=O)C2)CC1` (centres undefined) | -14.99% |
| `Cc1ccc(N2C[C@@H]3CCCO[C@@H]3[C@H](N3CCCC3)C2)nn1` | 17.31% |
| `CN(Cc1nc(-c2ccccc2)no1)Cc1cnc(N2CCOCC2)s1` | -21.8% |
| `CCCN1CCCC2(CCN(Cc3cncn3C3CCCC3)C2)C1=O` (centres undefined) | -13.88% |
| `COCC1CC2(CCN(C(=O)c3ccccc3C)CC2)CN1C(C)C` (centres undefined) | -46.13% |

Once more, the final 6:

Compound	percent effect
Cc1nccnc1C1CCN(C2CCCC2O)CC1 (centres undefined)	10.95%
O=c1ccc(-c2cccs2)nn1CN1CCN(C2CCS(=O)(=O)C2)CC1 (centres undefined)	-14.99%
Cc1ccc(N2C[C@@H]3CCCO[C@@H]3[C@H](N3CCCC3)C2)nn1	17.31%
CN(Cc1nc(-c2ccccc2)no1)Cc1cnc(N2CCOCC2)s1	-21.8%
CCCN1CCCC2(CCN(Cc3cncn3C3CCCC3)C2)C1=O (centres undefined)	-13.88%
COCC1CC2(CCN(C(=O)c3ccccc3C)CC2)CN1C(C)C (centres undefined)	-46.13%

Source: ChEMBL document CHEMBL3988442, “University of Dundee, Small-Polar-MMV Screening Library” (2021).